Results are given in words; binding and its absence hold for the method and conditions named. In cells and extracts the contact can be indirect. A yes stands for co-enrichment or nearness to the bait. Other partners may have been found. Blank lines part the entries; values can stand above or below the binder they belong to.
Target: TurboID-DR6 (UniProt O75509)
Assay: proximity labelling

- binding: binds
B1: proline-rich protein 4 (PRR4) (protein, UniProt Q16378 17-134)
chain: QSTDNDVNYEDFTFTIPDVEDSSQRPDQGPQRPPPEGLLPRPPGDSGNQDDGPQQRPPKPGGHHRHPPPPPFQNQQRPPRRGHRQLSLPRFPSVSLQEASSFFQRDRPARHPQEQPLW

- binding: binds
B2: lacritin (LACRT) (protein, UniProt Q9GZZ8 20-138)
chain: EDASSDSTGADPAQEAGTSKPNEEISGPAEPASPPETTTTAQETSAAAVQGTAKVTSSRQELNPLKSIVEKSILLTEQALAKAGKGMHGGVPGGKQFIENGSEFAQKLLKKFSLLKPWA

Reference: paper doi:10.1101/2024.10.21.619555
